The list shows a part of the results.
Columns and labels:
Test in all cases: log2 fold change, soluble protein after heating vs DMSO (PISA); higher = thermal stabilisation; K562 cells, 10 uM, 30 min; active = over 0.2 and 3.5 SD of the protein, either way, in both replicates (recomputed)
[1] = compound: C1=CC=C(C=C1)[C@H](COC2=CC3=C(C=C2)NC(=O)N3)NC(=O)C4=CC=CN(C4=O)CC5=CC(=C(C=C5)F)F
How it was run: (§1)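 K562 cells at 2×10^6 cells/mL were treated for 30 min with 10 μM compound, and aliquots were heated for 3 min over 48°C-58°C before pooling. Extraction used PBS with 0.5% NP-40 at 4°C, and soluble protein was the supernatant after 21,000xg for 90 min, measured by TMTpro 16plex LC-MS/MS with channel sums equalised. Thermal stability values, relative to control samples and from duplicates, are log2 fold changes.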

Sequences of proteins named here, by UniProt entry; tags and fusion partners are left off. A change or cut given only in a name is not applied to a line headed by its entry.
UniProt P09668: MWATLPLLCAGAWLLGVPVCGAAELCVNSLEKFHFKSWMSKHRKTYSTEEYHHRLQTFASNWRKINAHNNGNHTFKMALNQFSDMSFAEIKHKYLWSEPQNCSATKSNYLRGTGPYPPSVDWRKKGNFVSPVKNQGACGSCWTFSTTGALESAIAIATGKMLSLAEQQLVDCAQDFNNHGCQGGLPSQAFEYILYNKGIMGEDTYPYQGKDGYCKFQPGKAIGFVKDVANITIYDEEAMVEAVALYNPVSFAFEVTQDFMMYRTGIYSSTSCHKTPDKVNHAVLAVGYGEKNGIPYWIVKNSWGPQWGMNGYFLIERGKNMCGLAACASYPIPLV
UniProt Q9H1C7: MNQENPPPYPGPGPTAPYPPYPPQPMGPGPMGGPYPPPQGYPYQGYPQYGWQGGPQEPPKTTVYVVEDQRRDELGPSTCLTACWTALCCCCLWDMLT
UniProt Q6UW02: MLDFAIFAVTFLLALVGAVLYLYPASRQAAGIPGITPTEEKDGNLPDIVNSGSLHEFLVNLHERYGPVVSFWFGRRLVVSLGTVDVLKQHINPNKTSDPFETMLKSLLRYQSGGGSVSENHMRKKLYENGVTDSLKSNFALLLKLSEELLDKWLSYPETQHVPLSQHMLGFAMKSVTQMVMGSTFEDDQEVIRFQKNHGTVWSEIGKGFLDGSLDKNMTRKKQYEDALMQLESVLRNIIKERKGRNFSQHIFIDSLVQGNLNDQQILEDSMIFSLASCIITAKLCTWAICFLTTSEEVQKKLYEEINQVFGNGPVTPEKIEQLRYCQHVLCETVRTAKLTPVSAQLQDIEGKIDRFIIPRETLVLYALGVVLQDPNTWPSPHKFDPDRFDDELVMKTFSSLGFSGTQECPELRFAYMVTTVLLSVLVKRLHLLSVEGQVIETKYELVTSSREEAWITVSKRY
UniProt Q93034, whole entry, looked up: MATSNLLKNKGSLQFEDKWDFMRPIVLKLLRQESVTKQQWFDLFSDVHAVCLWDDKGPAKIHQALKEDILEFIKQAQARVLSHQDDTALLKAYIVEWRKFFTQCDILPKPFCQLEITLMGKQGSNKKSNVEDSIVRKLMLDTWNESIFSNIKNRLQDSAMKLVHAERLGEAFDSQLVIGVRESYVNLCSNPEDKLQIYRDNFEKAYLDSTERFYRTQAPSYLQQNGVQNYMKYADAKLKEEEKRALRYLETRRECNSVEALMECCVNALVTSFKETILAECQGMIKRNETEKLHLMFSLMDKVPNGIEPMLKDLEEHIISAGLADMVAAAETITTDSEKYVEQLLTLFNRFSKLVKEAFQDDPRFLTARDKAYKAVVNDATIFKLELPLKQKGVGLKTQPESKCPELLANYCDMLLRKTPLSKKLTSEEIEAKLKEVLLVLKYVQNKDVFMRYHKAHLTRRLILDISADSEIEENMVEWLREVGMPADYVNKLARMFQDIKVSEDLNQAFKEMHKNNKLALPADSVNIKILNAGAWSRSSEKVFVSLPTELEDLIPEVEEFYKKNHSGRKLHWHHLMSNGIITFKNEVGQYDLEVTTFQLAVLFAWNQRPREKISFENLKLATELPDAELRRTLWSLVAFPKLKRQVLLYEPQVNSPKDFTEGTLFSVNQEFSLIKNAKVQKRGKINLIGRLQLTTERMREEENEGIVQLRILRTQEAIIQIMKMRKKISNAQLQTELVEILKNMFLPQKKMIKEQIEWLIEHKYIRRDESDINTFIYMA
UniProt Q5TAQ9: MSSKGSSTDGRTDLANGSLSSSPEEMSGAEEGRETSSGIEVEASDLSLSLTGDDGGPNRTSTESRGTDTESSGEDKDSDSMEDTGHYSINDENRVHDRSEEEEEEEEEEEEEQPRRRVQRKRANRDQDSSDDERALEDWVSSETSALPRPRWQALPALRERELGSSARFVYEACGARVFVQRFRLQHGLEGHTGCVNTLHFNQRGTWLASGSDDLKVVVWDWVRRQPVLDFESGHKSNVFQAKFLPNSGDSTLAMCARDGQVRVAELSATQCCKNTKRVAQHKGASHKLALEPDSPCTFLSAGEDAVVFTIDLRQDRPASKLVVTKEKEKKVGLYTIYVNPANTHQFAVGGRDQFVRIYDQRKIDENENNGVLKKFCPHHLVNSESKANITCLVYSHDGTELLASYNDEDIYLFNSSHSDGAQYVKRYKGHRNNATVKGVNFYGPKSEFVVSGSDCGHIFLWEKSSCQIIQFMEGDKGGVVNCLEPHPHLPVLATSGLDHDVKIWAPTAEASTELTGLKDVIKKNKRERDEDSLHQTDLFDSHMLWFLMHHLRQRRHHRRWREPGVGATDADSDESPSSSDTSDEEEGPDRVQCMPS
UniProt Q9BTE1, whole entry, looked up: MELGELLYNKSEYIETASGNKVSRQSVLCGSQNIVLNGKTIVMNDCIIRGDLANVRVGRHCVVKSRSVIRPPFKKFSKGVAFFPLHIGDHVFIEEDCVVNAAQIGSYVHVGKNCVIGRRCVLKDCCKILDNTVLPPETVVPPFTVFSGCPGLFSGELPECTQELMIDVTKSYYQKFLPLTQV
UniProt Q9NWV4: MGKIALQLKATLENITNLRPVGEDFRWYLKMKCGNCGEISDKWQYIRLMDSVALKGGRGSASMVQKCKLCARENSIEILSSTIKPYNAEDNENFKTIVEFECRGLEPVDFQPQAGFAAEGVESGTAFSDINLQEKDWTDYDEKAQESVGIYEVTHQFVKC
UniProt Q58WW2: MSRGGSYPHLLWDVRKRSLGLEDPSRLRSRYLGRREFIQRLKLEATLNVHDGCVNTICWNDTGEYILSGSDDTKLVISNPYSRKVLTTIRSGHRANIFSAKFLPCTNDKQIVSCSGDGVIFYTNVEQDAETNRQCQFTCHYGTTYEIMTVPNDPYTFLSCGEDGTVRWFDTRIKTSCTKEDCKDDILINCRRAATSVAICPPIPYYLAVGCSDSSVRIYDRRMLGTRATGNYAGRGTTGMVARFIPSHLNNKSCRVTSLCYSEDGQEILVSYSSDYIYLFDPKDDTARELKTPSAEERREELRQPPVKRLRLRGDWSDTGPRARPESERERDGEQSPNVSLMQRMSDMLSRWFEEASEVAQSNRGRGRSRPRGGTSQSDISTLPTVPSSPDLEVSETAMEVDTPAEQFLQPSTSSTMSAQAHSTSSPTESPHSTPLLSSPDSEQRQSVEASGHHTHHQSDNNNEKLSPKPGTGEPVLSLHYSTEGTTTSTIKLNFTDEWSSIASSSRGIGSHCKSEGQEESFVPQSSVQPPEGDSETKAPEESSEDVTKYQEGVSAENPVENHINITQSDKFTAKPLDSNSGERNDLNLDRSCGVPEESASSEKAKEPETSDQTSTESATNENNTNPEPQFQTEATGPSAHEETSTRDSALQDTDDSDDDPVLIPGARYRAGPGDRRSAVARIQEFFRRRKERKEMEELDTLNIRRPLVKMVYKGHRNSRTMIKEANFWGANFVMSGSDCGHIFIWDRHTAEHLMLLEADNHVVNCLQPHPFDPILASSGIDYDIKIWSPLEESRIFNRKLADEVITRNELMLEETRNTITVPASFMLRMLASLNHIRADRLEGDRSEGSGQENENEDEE
UniProt P00387: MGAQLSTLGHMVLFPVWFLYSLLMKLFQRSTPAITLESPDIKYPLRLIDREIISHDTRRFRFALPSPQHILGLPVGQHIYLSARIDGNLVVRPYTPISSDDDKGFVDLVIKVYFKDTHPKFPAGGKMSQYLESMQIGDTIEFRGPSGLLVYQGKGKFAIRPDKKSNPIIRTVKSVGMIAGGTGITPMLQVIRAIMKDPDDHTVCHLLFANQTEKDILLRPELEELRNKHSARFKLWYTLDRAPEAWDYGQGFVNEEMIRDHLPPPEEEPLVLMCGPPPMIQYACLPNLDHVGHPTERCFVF
UniProt Q6PI48: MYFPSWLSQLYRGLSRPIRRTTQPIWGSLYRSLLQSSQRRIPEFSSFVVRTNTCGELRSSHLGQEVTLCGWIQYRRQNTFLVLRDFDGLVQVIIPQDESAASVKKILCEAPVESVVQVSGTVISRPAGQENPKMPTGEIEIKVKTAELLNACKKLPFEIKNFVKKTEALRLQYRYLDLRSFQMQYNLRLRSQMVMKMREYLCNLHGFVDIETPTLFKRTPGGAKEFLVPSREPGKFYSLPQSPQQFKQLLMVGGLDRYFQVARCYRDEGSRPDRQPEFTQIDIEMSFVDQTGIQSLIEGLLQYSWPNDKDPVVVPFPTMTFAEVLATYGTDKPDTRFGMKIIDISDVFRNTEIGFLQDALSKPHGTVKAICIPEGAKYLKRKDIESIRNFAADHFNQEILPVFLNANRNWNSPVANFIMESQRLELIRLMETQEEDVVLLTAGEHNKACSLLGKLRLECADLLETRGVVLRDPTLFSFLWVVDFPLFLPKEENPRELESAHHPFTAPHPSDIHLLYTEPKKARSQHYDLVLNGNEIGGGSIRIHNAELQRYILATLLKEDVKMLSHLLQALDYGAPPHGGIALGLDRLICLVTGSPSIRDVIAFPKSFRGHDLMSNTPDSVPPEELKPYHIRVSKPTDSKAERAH
UniProt Q96C57: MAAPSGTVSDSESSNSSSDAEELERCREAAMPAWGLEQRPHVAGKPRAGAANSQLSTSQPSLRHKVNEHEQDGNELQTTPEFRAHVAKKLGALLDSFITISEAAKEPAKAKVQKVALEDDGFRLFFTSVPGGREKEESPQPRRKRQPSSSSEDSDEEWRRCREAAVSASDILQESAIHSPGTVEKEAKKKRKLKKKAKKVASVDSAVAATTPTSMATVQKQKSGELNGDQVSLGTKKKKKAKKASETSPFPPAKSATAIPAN
UniProt Q8NCG7: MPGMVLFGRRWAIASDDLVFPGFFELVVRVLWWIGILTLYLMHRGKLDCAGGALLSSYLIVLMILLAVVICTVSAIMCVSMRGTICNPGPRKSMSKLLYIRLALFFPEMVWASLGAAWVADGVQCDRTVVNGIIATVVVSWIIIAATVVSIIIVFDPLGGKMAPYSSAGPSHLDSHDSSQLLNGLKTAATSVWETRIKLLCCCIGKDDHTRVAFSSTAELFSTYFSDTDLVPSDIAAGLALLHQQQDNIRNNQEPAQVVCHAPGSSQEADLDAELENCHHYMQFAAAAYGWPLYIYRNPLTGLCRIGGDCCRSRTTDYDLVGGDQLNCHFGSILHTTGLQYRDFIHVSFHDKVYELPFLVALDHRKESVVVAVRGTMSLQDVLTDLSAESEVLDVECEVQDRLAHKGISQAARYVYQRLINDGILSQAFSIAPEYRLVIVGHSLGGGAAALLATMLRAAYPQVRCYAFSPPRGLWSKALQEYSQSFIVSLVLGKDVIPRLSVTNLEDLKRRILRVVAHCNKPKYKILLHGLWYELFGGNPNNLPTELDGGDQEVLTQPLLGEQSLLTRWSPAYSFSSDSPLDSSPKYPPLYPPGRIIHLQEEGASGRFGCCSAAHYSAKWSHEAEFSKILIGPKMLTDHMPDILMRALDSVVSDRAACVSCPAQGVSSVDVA
UniProt P35222, whole entry, looked up: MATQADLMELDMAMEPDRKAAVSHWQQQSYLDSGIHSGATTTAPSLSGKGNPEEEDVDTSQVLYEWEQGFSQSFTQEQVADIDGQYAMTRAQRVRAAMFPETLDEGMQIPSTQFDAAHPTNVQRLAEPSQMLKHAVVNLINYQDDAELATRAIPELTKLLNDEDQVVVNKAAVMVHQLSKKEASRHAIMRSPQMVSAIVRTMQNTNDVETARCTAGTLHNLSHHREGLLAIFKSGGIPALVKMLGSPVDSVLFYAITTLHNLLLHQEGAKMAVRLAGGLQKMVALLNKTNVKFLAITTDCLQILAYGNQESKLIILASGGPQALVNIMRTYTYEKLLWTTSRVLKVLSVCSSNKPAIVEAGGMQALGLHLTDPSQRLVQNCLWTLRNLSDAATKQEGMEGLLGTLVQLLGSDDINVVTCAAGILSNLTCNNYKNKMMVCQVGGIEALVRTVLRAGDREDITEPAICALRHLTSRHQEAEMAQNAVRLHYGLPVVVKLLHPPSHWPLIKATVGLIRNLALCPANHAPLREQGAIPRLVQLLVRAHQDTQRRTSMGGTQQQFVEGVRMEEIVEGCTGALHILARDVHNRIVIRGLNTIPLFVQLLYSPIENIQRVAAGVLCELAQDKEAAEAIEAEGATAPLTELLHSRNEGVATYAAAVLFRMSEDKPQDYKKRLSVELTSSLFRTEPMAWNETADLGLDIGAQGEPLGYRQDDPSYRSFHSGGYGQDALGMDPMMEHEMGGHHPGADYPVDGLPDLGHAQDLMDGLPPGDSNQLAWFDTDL
UniProt Q01459: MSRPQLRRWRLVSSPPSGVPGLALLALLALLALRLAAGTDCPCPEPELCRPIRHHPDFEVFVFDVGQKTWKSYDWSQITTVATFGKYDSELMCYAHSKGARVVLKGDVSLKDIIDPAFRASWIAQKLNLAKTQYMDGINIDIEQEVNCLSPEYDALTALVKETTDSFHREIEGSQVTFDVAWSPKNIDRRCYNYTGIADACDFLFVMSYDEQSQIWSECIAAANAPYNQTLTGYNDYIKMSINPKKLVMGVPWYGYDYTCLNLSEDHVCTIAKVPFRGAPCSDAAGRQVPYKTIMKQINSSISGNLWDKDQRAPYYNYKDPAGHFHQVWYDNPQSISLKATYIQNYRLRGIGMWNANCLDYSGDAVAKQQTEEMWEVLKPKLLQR

[2] = compound: CC1=C(SC2=C1C(=N[C@H](C3=NN=C(N32)C)CC(=O)N)C4=CC=C(C=C4)Cl)C
How it was run: as §1

[3] = compound: CC1=C2C(=CC=C1)N=C(N(C2=O)C3=CC=CC=C3C)CN4C=NC5=C(N=CN=C54)N
How it was run: as §1

[4] = compound: Cc1sc2c(c1C)C(c1ccc(Cl)cc1)=N[C@@H](CC(=O)OC(C)(C)C)c1nnc(C)n1-2
How it was run: as §1

[5] = compound: c1ccc([C@@H]2C[C@H]2NC2CCNCC2)cc1
How it was run: as §1

Measured: log2 fold change

CTSH (UniProt P09668)
inactive: [1] 0 | [2] -0.046 | [3] -0.038 | [4] -0.035 | [5] 0.055

DCUN1D1 (UniProt Q96GG9)
inactive: [1] -0.011 | [2] 0.064 | [3] 0.073 | [4] -0.033 | [5] 0.003

CYSTM1 (UniProt Q9H1C7)
inactive: [1] 0 | [2] -0.132 | [3] -0.121 | [4] 0.103 | [5] 0

CYP20A1 (UniProt Q6UW02)
inactive: [1] -0.013 | [2] 0.043 | [3] 0.067 | [4] -0.038 | [5] -0.017

CYFIP1 (UniProt Q7L576)
inactive: [1] 0.009 | [2] 0.005 | [3] -0.009 | [4] -0.005 | [5] -0.029

CTPS1 (UniProt P17812)
inactive: [1] 0.007 | [2] 0.012 | [3] 0.017 | [4] -0.003 | [5] 0.007

CUL5 (UniProt Q93034)
inactive: [1] 0.007 | [2] 0.046 | [3] 0.028 | [4] -0.004 | [5] 0.001

DCAF8 (UniProt Q5TAQ9)
inactive: [1] 0.023 | [2] -0.044 | [3] 0.035 | [4] -0.005 | [5] -0.011

CTU1 (UniProt Q7Z7A3)
inactive: [1] -0.061 | [2] 0.025 | [3] 0.052 | [4] -0.006 | [5] -0.051

CT55 (UniProt Q8WUE5)
inactive: [1] -0.071 | [2] 0.049 | [3] 0.076 | [4] 0.012 | [5] 0.035

DCAF15 (UniProt Q66K64)
inactive: [1] 0.016 | [2] 0.153 | [3] -0.065 | [4] 0.038 | [5] -0.063

CTNNA2 (UniProt P26232)
inactive: [1] 0.016 | [2] 0.02 | [3] 0.02 | [4] 0.02 | [5] -0.058

CSTF3 (UniProt Q12996)
inactive: [1] -0.005 | [2] 0.064 | [3] -0.007 | [4] 0.03 | [5] -0.016

CWC15 (UniProt Q9P013)
inactive: [1] 0.07 | [2] 0.031 | [3] -0.046 | [4] 0.052 | [5] 0.047

CUL3 (UniProt Q13618)
inactive: [1] -0.018 | [2] 0.05 | [3] 0.034 | [4] -0.017 | [5] -0.011

CTCF (UniProt P49711)
inactive: [1] 0.097 | [2] -0.456 | [3] -0.177 | [4] 0.131 | [5] 0.016

DCTN5 (UniProt Q9BTE1)
inactive: [1] -0.002 | [2] 0.022 | [3] 0.095 | [4] -0.018 | [5] 0.053

CUTA isoform 2 (UniProt O60888)
inactive: [1] 0.099 | [2] 0.116 | [3] -0.289 | [4] -0.123 | [5] 0.015

DCP1A (UniProt Q9NPI6)
inactive: [1] -0.053 | [2] 0 | [3] -0.006 | [4] 0.093 | [5] 0.175

CYP51A1 (UniProt Q16850)
inactive: [1] -0.096 | [2] 0.055 | [3] -0.037 | [4] -0.01 | [5] -0.001

CTH (UniProt P32929)
inactive: [1] -0.024 | [2] 0.019 | [3] -0.006 | [4] -0.028 | [5] -0.006

CTNNA1 isoform 2 (UniProt P35221)
inactive: [1] 0.016 | [2] 0.027 | [3] -0.008 | [4] -0.001 | [5] 0.003

CZIB (UniProt Q9NWV4)
inactive: [1] 0.011 | [2] 0.016 | [3] 0.027 | [4] -0.009 | [5] 0.029

DCTN1 isoform 4 (UniProt Q14203)
inactive: [1] -0.052 | [2] -0.021 | [3] 0.096 | [4] 0.044 | [5] -0.008

DCTN3 (UniProt O75935)
inactive: [1] -0.033 | [2] 0.046 | [3] 0.141 | [4] -0.042 | [5] -0.001

DBR1 (UniProt Q9UK59)
inactive: [1] 0.023 | [2] 0 | [3] 0 | [4] 0.017 | [5] 0.057

DCAF6 isoform 3 (UniProt Q58WW2)
inactive: [1] 0.04 | [2] -0.017 | [3] 0.003 | [4] 0.032 | [5] 0.027

CYB5R3 isoform 3 (UniProt P00387)
inactive: [1] 0.039 | [2] 0.041 | [3] 0.022 | [4] 0.004 | [5] -0.019

CTNND1 (UniProt O60716)
inactive: [1] 0.074 | [2] -0.147 | [3] -0.15 | [4] 0.27 | [5] -0.066

DAPK1 isoform 3 (UniProt P53355)
inactive: [1] -0.003

Copied from the entries so far (two entries):
DCAF6 isoform 3 (UniProt Q58WW2)
inactive: [1] 0.04 | [2] -0.017 | [3] 0.003 | [4] 0.032 | [5] 0.027

CYB5R3 isoform 3 (UniProt P00387)
inactive: [1] 0.039 | [2] 0.041 | [3] 0.022 | [4] 0.004 | [5] -0.019

(further entries)

DARS2 (UniProt Q6PI48)
inactive: [1] 0.007 | [2] -0.015 | [3] -0.036 | [4] 0.031 | [5] 0.036

CUSTOS (UniProt Q96C57)
inactive: [1] 0.03 | [2] 0.004 | [3] 0.049 | [4] -0.001 | [5] 0.005

CUX1 isoform 3 (UniProt P39880)
inactive: [1] 0 | [2] 0.025 | [3] 0.034 | [4] -0.009 | [5] 0.016

CSTF2 (UniProt P33240)
inactive: [1] 0.017 | [2] 0.04 | [3] 0.057 | [4] -0.026 | [5] 0.021

DAAM2 (UniProt Q86T65)
inactive: [1] -0.036

CXCL14 (UniProt O95715)
inactive: [1] -0.086

DAZAP1 (UniProt Q96EP5)
inactive: [1] 0 | [2] 0.029 | [3] -0.009 | [4] 0.033 | [5] 0.059

CTSL (UniProt P07711)
inactive: [1] -0.017 | [2] -0.07 | [3] 0.015 | [4] 0.031 | [5] 0.104

CXorf56 (UniProt Q9H5V9)
inactive: [1] -0.024 | [2] 0.034 | [3] 0.077 | [4] 0.015 | [5] -0.031

DCAF7 (UniProt P61962)
inactive: [1] 0.003 | [2] -0.152 | [3] 0.047 | [4] 0.016 | [5] 0

DCTPP1 (UniProt Q9H773)
inactive: [1] 0.022 | [2] 0.029 | [3] -0.015 | [4] -0.043 | [5] 0.009

DAGLB (UniProt Q8NCG7)
inactive: [1] 0.041 | [2] 0.028 | [3] 0.088 | [4] -0.027 | [5] 0.012

CTNNB1 (UniProt P35222)
inactive: [1] -0.039 | [2] 0.101 | [3] 0.312 | [4] -0.062 | [5] -0.149

DCTN6 (UniProt O00399)
inactive: [1] 0.012 | [2] 0.049 | [3] 0.019 | [4] 0.009 | [5] -0.006

Reprinted from above (14 entries):
CYB5R3 isoform 3 (UniProt P00387)
inactive: [1] 0.039 | [2] 0.041 | [3] 0.022 | [4] 0.004 | [5] -0.019

CTNND1 (UniProt O60716)
inactive: [1] 0.074 | [2] -0.147 | [3] -0.15 | [4] 0.27 | [5] -0.066

DAPK1 isoform 3 (UniProt P53355)
inactive: [1] -0.003

DARS2 (UniProt Q6PI48)
inactive: [1] 0.007 | [2] -0.015 | [3] -0.036 | [4] 0.031 | [5] 0.036

CUSTOS (UniProt Q96C57)
inactive: [1] 0.03 | [2] 0.004 | [3] 0.049 | [4] -0.001 | [5] 0.005

CUX1 isoform 3 (UniProt P39880)
inactive: [1] 0 | [2] 0.025 | [3] 0.034 | [4] -0.009 | [5] 0.016

CSTF2 (UniProt P33240)
inactive: [1] 0.017 | [2] 0.04 | [3] 0.057 | [4] -0.026 | [5] 0.021

DAAM2 (UniProt Q86T65)
inactive: [1] -0.036

CXCL14 (UniProt O95715)
inactive: [1] -0.086

DAZAP1 (UniProt Q96EP5)
inactive: [1] 0 | [2] 0.029 | [3] -0.009 | [4] 0.033 | [5] 0.059

CTSL (UniProt P07711)
inactive: [1] -0.017 | [2] -0.07 | [3] 0.015 | [4] 0.031 | [5] 0.104

CXorf56 (UniProt Q9H5V9)
inactive: [1] -0.024 | [2] 0.034 | [3] 0.077 | [4] 0.015 | [5] -0.031

DCAF7 (UniProt P61962)
inactive: [1] 0.003 | [2] -0.152 | [3] 0.047 | [4] 0.016 | [5] 0

DCTPP1 (UniProt Q9H773)
inactive: [1] 0.022 | [2] 0.029 | [3] -0.015 | [4] -0.043 | [5] 0.009

(further entries)

DCTN4 (UniProt Q9UJW0)
inactive: [1] 0.016 | [2] 0.016 | [3] 0 | [4] 0.004 | [5] 0.011

CSTB (UniProt P04080)
inactive: [1] 0.045 | [2] 0.124 | [3] 0.069 | [4] -0.107 | [5] 0.033

DCTN2 isoform 2 (UniProt Q13561)
inactive: [1] -0.03 | [2] 0.023 | [3] -0.006 | [4] -0.01 | [5] -0.024

DAP3 (UniProt P51398)
inactive: [1] 0.044 | [2] -0.016 | [3] -0.083 | [4] 0.046 | [5] -0.037

CTU2 (UniProt Q2VPK5)
inactive: [1] -0.01 | [2] 0.03 | [3] -0.009 | [4] -0.024 | [5] -0.021

CTBP1 (UniProt Q13363)
inactive: [1] 0.005 | [2] 0.036 | [3] 0.021 | [4] -0.027 | [5] 0.032

CTBS (UniProt Q01459)
inactive: [1] 0.082 | [2] -0.002 | [3] 0.014 | [4] -0.019 | [5] -0.006

CWF19L1 (UniProt Q69YN2)
inactive: [1] -0.022 | [2] 0.011 | [3] 0.073 | [4] 0.004 | [5] 0.018

CUL2 isoform 2 (UniProt Q13617)
inactive: [1] -0.006 | [2] 0.035 | [3] 0.051 | [4] -0.016 | [5] -0.033

CYP46A1 (UniProt Q9Y6A2)
inactive: [1] 0.068 | [2] 0.028 | [3] 0.205 | [4] -0.054 | [5] 0.139

DCAF13 (UniProt Q9NV06)
inactive: [1] 0.105 | [2] -0.221 | [3] -0.152 | [4] 0.128 | [5] 0

From the supplement of paper PMC10849652
